Laboratory results published in publication PMC11101354.
No constants are given. Whether binding was seen depends on the method and setting. Binding seen in cells or lysates may run through a third protein. Some entries that bind do so weakly or less than the wild type.

By UniProt entry, the sequences of proteins in these tests, tags left out.
UniProt P10922: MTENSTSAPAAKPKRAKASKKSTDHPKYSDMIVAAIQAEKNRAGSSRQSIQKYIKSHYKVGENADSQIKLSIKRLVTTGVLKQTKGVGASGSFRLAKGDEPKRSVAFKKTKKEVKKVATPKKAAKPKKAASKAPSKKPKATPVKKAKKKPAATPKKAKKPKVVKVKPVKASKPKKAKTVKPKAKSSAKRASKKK
UniProt O09106: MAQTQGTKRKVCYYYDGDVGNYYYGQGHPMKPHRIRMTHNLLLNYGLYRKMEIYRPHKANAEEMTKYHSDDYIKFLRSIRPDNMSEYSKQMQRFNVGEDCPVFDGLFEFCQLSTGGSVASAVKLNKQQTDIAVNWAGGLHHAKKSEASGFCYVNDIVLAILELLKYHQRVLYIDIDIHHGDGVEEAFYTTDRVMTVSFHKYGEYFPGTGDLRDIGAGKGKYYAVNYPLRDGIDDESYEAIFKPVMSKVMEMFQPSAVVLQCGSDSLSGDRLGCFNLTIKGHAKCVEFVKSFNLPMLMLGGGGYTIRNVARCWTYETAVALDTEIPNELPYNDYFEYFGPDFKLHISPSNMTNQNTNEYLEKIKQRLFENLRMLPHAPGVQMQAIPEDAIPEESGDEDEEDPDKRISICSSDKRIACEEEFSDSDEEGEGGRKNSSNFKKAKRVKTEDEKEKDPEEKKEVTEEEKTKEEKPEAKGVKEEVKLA

Target: histone H1.0 (mouse, FLAG-tagged, expressed from Adv-GFP-H1.0-FLAG) (mouse) (UniProt P10922)
Assay: co-IP; anti-FLAG immunoprecipitation (FLAG Immunoprecipitation Kit, Sigma-Aldrich) from lysates of primary murine cardiac fibroblasts transfected with Adv-GFP-H1.0-FLAG or Adv-GFP for 48 h; eluted with SDS sample buffer, immunoblotting

- binding: binds
Substance: HDAC1 (from UniProt O09106 1-482) (enzyme)
